Results as given in patent US20230416740A1.
These are yes or no findings as the source states them, for the method shown. Binding seen in cells or lysates may run through a third protein. Some binding calls cover weakened binding; strength is not graded here.

Amino acid sequences for entries named in this document (tags omitted). Residues count along the entry.
UniProt Q8K212, residues 114-961: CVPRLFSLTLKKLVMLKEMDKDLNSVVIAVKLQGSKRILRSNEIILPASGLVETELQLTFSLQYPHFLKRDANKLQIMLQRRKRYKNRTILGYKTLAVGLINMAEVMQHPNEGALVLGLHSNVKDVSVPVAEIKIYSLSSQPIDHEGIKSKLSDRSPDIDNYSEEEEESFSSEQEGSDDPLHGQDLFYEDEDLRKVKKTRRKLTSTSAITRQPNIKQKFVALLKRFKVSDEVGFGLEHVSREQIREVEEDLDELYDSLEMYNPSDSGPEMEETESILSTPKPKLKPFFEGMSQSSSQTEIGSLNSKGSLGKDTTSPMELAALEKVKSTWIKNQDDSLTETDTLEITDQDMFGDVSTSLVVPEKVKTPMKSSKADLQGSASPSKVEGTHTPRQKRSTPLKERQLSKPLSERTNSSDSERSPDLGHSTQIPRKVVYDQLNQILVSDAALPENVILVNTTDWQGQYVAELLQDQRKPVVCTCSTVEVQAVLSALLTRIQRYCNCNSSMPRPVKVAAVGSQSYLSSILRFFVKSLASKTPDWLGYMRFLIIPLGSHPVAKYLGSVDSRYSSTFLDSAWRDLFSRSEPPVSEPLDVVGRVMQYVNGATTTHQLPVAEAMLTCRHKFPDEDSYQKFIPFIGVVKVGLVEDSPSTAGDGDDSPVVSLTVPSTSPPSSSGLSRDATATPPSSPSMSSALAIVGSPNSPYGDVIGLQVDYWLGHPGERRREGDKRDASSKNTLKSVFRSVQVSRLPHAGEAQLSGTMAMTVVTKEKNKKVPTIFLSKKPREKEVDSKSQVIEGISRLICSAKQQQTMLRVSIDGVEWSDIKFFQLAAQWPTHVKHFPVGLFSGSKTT

Biological target: T1, WD repeat domain protein 37 (Wdr37) from wild-type murine B cell extract (mouse) (UniProt Q8CBE3)
T1 sequence (looked up): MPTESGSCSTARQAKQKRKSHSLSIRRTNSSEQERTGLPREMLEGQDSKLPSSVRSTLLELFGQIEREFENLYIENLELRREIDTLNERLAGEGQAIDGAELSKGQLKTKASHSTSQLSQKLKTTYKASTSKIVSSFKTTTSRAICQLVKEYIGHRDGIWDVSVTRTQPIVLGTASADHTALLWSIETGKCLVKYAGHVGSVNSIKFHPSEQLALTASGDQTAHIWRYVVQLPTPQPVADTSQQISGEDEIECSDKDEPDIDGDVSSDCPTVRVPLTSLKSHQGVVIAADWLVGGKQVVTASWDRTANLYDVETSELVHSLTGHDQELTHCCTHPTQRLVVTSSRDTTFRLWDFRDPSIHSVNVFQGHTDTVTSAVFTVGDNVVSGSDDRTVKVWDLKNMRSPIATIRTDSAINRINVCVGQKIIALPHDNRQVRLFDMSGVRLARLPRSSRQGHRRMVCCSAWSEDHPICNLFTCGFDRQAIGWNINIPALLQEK
Test: bead-immobilized FLAG-Pacs1 incubated with murine B cell extract, co-IP LC-MS/MS, enrichment over beads alone

FLAG-Pacs1 (bait of the co-IP mass spectrometry) (from UniProt Q8K212 114-961)
binding: binds
